From PubChem BioAssay AID504444 (National Center for Advancing Translational Sciences (NCATS), 2011)
The campaign covered roughly 360,000 compounds. About 7,500 (2.1%) were called active. Inconclusive results, whose numbers are uncertain, are shown with a selection of clear calls. The call rests on the fitted dose curve; in most records, active means well fitted inhibition curve with a large enough effect; inconclusive means small, poorly fitted or top-dose-only effect, or effect the other way; inactive means flat fitted curve, though single readings scatter. Potencies of inconclusive entries are doubtful fits and often do not repeat.
Potency means the concentration at half of the fitted maximal effect.

Experiment: Nrf2 qHTS screen for inhibitors; further: nearly all actives have a fitted effect of over 60% in size
Settings: A549 ARE-Fluc reporter, luciferase luminescence, 18-24 h; series mostly up to 46 µM
Procedure, shortened: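 Concentration-response testing used A549 ARE_Fluc cells at 5000 cells/well. Following an 18-24 h compound incubation, viability was read by fluorescence (Ex 405/Em 525) and luciferase output by luminescence.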
For `COc1ccc(NC(=O)CN(C)C(=O)C(Sc2ccccc2)c2ccccc2)cc1` (stereo not drawn), the Potency was “inactive”.
For `Fc1ccc2[nH]c3c(c2c1)CN(C(=S)NCc1ccccc1)CC3`, the Potency was inconclusive: 8.2 µM [falling, partial curve, poor fit].
For `CCCNS(=O)(=O)c1cccc(C(=O)OCc2cc(=O)oc3cc(OC)ccc23)c1`, the Potency was inconclusive: 18.4 µM [activator, partial curve].
In the case of `O=C(COc1ccccc1)Nc1ccc2nc(SCC(=O)N3CCCC3)sc2c1`, the Potency is reported as inconclusive: 29.1 µM [falling, single point].
In the case of `N#Cc1ccc(CN2CCN(C(=O)c3ccccc3)CC2)c(Cl)c1`, the Potency is reported as inconclusive: 20.6 µM [activator, partial curve, poor fit].
With `O=C(NC1CCCCCC1)C(=S)NCc1ccccc1` the Potency was inconclusive: 18.4 µM [activator, partial curve].
In the case of `CCOC(=O)c1c(-c2ccccc2)oc2cc(Br)c(O)c(C=O)c12`, the Potency is reported as active: 20.6 µM.
With `Fc1ccc(N2CCN(c3ncnc4c3nc3n4CCCC3)CC2)cc1` the Potency was inconclusive: 2.59 µM [falling, full curve].
In the case of `Cn1c(CCN2CCCCCC2)nc2cc(NC(=O)Nc3ccccc3)ccc21`, the Potency is reported as inconclusive: 4.61 µM [activator, partial curve].
For `Cc1ccc(OCc2cc(C(=O)N3CCN(C4CCCC4)CC3)no2)cc1C`, the Potency was inconclusive: 29.1 µM [activator, single point].
For `Cc1cccc(N2CCN(C(=O)C3CCN(S(=O)(=O)N4CCOCC4)CC3)CC2)c1C`, the Potency was active: 20.6 µM.
With `CN=c1scc(-c2cccs2)n1/N=C/c1ccc(O)c(O)c1O` the Potency was inconclusive: 14.6 µM [falling, single point].
In the case of `O=C(NCc1ccncc1)c1nc(-c2ccc(C(F)(F)F)cc2)no1`, the Potency is reported as inconclusive: 29.1 µM [falling, single point].
In the case of `COc1cccc(C2c3c(oc4ccc(F)cc4c3=O)C(=O)N2CCN2CCOCC2)c1OC` (stereo not drawn), the Potency is reported as inconclusive: 1.16 µM [falling, partial curve].
In the case of `CCc1ccc(N(C(=O)c2csnn2)C(C(=O)NC(C)(C)C)c2ccccn2)cc1` (stereo not drawn), the Potency is reported as inconclusive: 2.06 µM [activator, partial curve, poor fit].
With `Cn1c(C(=O)N2CCN(c3cccc(C(F)(F)F)c3)CC2)cc2sccc21` the Potency was active: 25.9 µM.
With `CCCC[n+]1ccn(C2=C([O-])c3ccccc3C(=O)/C2=N\S(=O)(=O)c2ccc(Br)cc2)c1` the Potency was inconclusive: 29.1 µM [falling, single point].
For `COc1ccc(C2c3c(-c4ccc(F)cc4)n[nH]c3C(=O)N2c2ccccc2)cc1OC` (stereo not drawn), the Potency was “inactive”.
In the case of `CCOc1ccc(CCNC(=O)c2cc3c(-c4ccccc4F)nn(C)c3s2)cc1OCC`, the Potency is reported as active: 18.4 µM.
With `COc1ccc(-c2sc3ccc(N4CCOCC4)cc3c2C#CCCO)cc1` the Potency was “inactive”.
For `COc1ccccc1C1CCN(C(=O)c2ccc(C(C)(C)C)cc2)CC1`, the Potency was inconclusive: 29.1 µM [falling, single point].
With `Cc1ccccc1CNC(=O)CCSCc1cnn(-c2ccccc2)c1-n1cccc1` the Potency was inconclusive: 32.6 µM [falling, single point].
In the case of `COc1ccc(OC)c(S(=O)(=O)N/N=C\c2c[nH]c3ccccc23)c1`, the Potency is reported as inconclusive: 1.84 µM [falling, partial curve, poor fit].
For `COCCn1nnnc1C(CC(C)C)N1CCN(C(=O)c2ccco2)CC1` (stereo not drawn), the Potency was inconclusive: 0.0046 µM [activator, full curve, poor fit].
In the case of `COc1cc2c(c(OC)c1OC)-c1ccc(SC)c(=O)cc1C(NC(=O)C(F)(F)F)CC2` (stereo not drawn), the Potency is reported as inconclusive: 0.0052 µM [activator, full curve, poor fit].
In the case of `S=C(NCc1ccco1)Nc1ccc(Br)cc1Cl`, the Potency is reported as inconclusive: 29.1 µM [falling, single point].
With `O=S(=O)(Nc1cccnc1)c1ccc(Cl)c(C(F)(F)F)c1` the Potency was inconclusive: 0.92 µM [falling, full curve, poor fit].
In the case of `c1ccc(Oc2cc(-n3cncn3)ncn2)cc1`, the Potency is reported as inconclusive: 8.2 µM [activator, partial curve].
For `CC1CN(C(=O)CCC(=O)NCc2ccc(Cl)cc2)c2ccccc2O1` (stereo not drawn), the Potency was “inactive”.
With `O=C(C1CCN(Cc2ccc(Cl)cc2)CC1)N1CCN(Cc2ccc3c(c2)OCO3)CC1` the Potency was inconclusive: 14.6 µM [falling, single point].
For `CSCC(=O)NC1CCCN(C2Cc3ccccc3C2)C1` (stereo not drawn), the Potency was inconclusive: 1.03 µM [falling, full curve, poor fit].
For `O=C(NN1C(=O)/C(=C/c2ccc(O)c([N+](=O)[O-])c2)SC1=S)c1ccccc1Cl`, the Potency was inconclusive: 5.8 µM [falling, single point].
In the case of `Cc1ccc2sc(NC(=O)c3cccc(N4C(=O)CCC4=O)c3)nc2c1C`, the Potency is reported as inconclusive: 36.6 µM [activator, partial curve, poor fit].
With `CCNC(=O)CC1C(=O)N(c2ccccc2)C(=O)N1Cc1ccc(OC)cc1` (stereo not drawn) the Potency was inconclusive: 0.0046 µM [falling, full curve, poor fit].
With `CC(C)NC(=O)COC(=O)CNC(=O)C1CCCCC1` the Potency was “inactive”.
With `CCOC(=O)c1cnn(-c2nc(SC)nc3sc4c(c23)CCC4)c1N` the Potency was inconclusive: 29.1 µM [activator, single point].
In the case of `CCOc1ccccc1NC(=O)c1ccc(OCC)c([N+](=O)[O-])c1`, the Potency is reported as inconclusive: 2.59 µM [falling, partial curve, poor fit].
In the case of `Cc1cc(C)c(C#N)c(OCC(=O)Nc2ccccc2)n1`, the Potency is reported as inconclusive: 1.84 µM [activator, full curve, poor fit].
In the case of `Nc1c(-c2nc(-c3ccccc3Cl)no2)nnn1-c1ccccc1F`, the Potency is reported as inconclusive: 0.58 µM [activator, partial curve, poor fit].
With `CCOc1ccc2[nH]c3nc(SCC(=O)NCC4CCCO4)nnc3c2c1` (stereo not drawn) the Potency was inconclusive: 14.6 µM [falling, single point].
For `O=C(NC(=O)N1CCOCC1)c1ccccc1`, the Potency was inconclusive: 6.51 µM [activator, full curve, poor fit].
In the case of `CC(C)(C)NC(=O)NC(=O)CN1CCCCCCC1`, the Potency is reported as inconclusive: 25.9 µM [activator, partial curve, poor fit].
For `Cc1ccccc1C(=O)NC(=S)Nc1ncccn1`, the Potency was inconclusive: 0.146 µM [activator, single point].
With `COC(=O)c1cc2oc3ccccc3c2n1CC(=O)Nc1ccc(N(C)C)cc1` the Potency was inconclusive: 16.4 µM [activator, single point].
In the case of `CCC(CO)Oc1cc(NCc2ccccc2)c2ncn(C(C)C)c2c1` (stereo not drawn), the Potency is reported as “inactive”.
For `CCOc1ccc(N2C(=O)CS/C2=N/NC(=O)COc2ccc3ccccc3c2)cc1`, the Potency was inconclusive: 6.51 µM [falling, partial curve].
For `Cc1c(C(=O)OCC(=O)Nc2ccc(S(N)(=O)=O)cc2)oc2c1ccc1ccccc12`, the Potency was inconclusive: 14.6 µM [falling, partial curve, poor fit].
For `Cc1nc2nc(C)c(CCC(=O)NCCc3ccccc3)c(C)n2n1`, the Potency was inconclusive: 4.11 µM [activator, partial curve, poor fit].
With `COc1ccc(CNc2nc3ccccc3n2Cc2ccc(Cl)cc2)cc1OC` the Potency was active: 23.1 µM.
For `O=C(Cn1cc(S(=O)(=O)Cc2ccccc2Cl)c2ccccc21)Nc1cccc(C(F)(F)F)c1`, the Potency was inconclusive: 29.1 µM [falling, single point].
For `Cc1ccc(S(=O)(=O)N(CC(=O)Nc2c(C)cccc2C)c2cccc(Cl)c2)cc1`, the Potency was inconclusive: 29.1 µM [falling, single point].
For `Cc1sc2ncnc(N3CCCC(C)C3)c2c1C` (stereo not drawn), the Potency was inconclusive: 18.4 µM [falling, partial curve].
For `COc1ccccc1N1C(=S)N=C(Nc2c(C)cccc2C)C12CCCC2`, the Potency was inconclusive: 18.4 µM [activator, partial curve].
With `CC(C)(C)OC(=O)C[C@@H]1C/C=C\C[C@H](CC(=O)N[C@H](CO)Cc2ccccc2)C(=O)N[C@H](Cc2ccccc2)COC1=O` the Potency was inconclusive: 25.9 µM [activator, partial curve].
In the case of `COc1ccc(NC(=O)c2[nH]c(C)c(C(C)=O)c2C)cc1S(=O)(=O)Nc1ccc(Br)cc1`, the Potency is reported as inconclusive: 10.3 µM [activator, partial curve, poor fit].
In the case of `COC(=O)c1cc(Br)ccc1-c1ccc(/C=N/n2nnnc2N)o1`, the Potency is reported as inconclusive: 29.1 µM [falling, partial curve, poor fit].
In the case of `CC(=O)N/C(N)=N/c1nc2cc([N+](=O)[O-])ccc2o1`, the Potency is reported as inconclusive: 29.1 µM [activator, single point].
In the case of `O=C(NCC1CCCO1)c1ccc2c(c1)N(Cc1ccc(F)cc1)CCS2` (stereo not drawn), the Potency is reported as inconclusive: 0.651 µM [falling, full curve, poor fit].
In the case of `CCOc1ccc(C(=O)NC(=S)Nc2ccc(N3CCC(C)CC3)cc2)cc1[N+](=O)[O-]`, the Potency is reported as “inactive”.
With `CCOC(=O)N1CCN(C(=O)c2ccc(OC)c(OC)c2)CC1` the Potency was inconclusive: 0.231 µM [falling, full curve, poor fit].
For `C/C=C(\C)C(=O)Nc1cccc(C2=NOC3(C2)C[C@@H](C(N)=O)N(C(=O)/C(C)=C/C)C3)c1` (stereo partly drawn), the Potency was “inactive”.
With `CC(C)(C)c1ccc(OCCC(=O)Nc2cccc(S(=O)(=O)NC3=NCCCCC3)c2)cc1` the Potency was active: 18.4 µM.
In the case of `CC12CCC(=O)N1C(C(=O)OCC(=O)Nc1ccc(C(F)(F)F)cc1)CS2` (stereo not drawn), the Potency is reported as inconclusive: 16.4 µM [activator, partial curve, poor fit].
